Data on three substances can be found in publication PMC4144329.

The chains behind the UniProt entries cited, without tags or fusion partners. Where a name states a change or a piece, a line headed by the entry shows the natural chain unless it says otherwise.
UniProt Q9VF10: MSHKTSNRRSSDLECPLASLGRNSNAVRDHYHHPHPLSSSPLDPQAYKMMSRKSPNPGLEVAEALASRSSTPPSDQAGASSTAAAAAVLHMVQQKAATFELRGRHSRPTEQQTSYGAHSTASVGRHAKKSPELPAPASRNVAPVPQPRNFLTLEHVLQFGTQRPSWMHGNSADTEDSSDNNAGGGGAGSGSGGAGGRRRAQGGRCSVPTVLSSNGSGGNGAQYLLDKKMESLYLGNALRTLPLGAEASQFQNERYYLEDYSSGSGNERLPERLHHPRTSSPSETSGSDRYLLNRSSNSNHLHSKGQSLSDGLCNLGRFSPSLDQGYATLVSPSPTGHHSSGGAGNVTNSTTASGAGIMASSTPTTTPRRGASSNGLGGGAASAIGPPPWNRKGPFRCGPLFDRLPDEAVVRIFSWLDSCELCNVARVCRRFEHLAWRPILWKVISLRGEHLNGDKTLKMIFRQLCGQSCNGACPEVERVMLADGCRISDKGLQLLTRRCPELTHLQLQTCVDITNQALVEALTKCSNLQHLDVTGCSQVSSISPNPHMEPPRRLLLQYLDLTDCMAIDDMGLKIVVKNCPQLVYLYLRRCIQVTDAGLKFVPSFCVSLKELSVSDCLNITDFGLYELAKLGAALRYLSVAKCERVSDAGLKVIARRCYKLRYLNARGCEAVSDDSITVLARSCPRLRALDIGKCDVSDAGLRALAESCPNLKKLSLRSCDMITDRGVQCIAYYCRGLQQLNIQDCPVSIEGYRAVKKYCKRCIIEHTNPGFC
UniProt Q24311: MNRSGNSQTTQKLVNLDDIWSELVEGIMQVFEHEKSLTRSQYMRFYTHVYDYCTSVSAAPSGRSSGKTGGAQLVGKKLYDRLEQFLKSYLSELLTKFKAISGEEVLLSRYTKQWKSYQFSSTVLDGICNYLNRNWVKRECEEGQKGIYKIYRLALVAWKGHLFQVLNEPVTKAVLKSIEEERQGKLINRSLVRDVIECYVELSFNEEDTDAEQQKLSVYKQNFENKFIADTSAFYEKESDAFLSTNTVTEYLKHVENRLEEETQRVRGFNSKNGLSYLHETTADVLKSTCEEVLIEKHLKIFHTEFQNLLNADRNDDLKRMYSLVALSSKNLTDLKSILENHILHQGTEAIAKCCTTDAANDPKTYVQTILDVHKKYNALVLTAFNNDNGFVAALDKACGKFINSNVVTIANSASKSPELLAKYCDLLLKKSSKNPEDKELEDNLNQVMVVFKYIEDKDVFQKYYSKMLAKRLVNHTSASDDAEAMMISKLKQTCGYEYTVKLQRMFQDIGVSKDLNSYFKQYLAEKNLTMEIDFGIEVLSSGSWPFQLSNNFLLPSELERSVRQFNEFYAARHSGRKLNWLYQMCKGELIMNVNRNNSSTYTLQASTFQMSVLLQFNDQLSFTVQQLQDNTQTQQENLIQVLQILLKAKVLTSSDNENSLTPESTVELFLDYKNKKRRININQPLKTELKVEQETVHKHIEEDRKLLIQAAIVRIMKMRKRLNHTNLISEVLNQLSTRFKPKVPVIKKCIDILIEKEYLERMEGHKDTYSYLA
UniProt O76324: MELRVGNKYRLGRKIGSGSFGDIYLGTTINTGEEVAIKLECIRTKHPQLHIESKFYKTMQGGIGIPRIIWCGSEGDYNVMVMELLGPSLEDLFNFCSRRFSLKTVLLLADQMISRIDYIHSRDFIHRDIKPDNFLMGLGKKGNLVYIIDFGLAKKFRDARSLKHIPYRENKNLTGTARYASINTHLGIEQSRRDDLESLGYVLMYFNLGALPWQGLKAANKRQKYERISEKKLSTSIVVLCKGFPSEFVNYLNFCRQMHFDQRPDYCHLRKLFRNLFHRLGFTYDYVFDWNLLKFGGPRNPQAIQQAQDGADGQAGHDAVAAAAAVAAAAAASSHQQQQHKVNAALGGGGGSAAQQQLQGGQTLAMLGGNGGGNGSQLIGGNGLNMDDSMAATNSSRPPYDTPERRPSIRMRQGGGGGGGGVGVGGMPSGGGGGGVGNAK
UniProt O77430: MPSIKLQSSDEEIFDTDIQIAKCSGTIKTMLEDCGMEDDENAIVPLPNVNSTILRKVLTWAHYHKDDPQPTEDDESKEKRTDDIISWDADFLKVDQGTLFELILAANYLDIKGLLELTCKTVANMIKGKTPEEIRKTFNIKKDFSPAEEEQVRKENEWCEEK

The target of test [1] is FLAG-Fbxl7 (Drosophila F-box protein Fbxl7, full length) (Drosophila) (UniProt Q9VF10). As to the kind of experiment: co-IP; S2R+ cells co-transfected; 50 µM MG132 4 hr before harvest; anti-FLAG M2 affinity gel overnight at 4°C; FLAG-protein complexes eluted off beads with 400 ng/µl 3x FLAG peptide for 30 min at 4°C (SkpA, Cul1 and Cindr co-IPs); western blot. Background: A western blot detects proteins with antibodies after separation by electrophoresis.

The target is the same in test [2]. As to the kind of experiment: co-IP; S2R+ cells co-transfected; 50 µM MG132 4 hr before harvest; lysis buffer 20 mM HEPES pH 7.5, 5 mM KCl, 1 mM MgCl2, 0.1% NP-40; lysate incubated with anti-FLAG M2 affinity gel overnight at 4°C; beads washed twice and boiled in SDS sample buffer; western blot.

No constants are given. Whether binding was seen depends on the method and setting. In cells and extracts the contact can be indirect. Binding can be weak; no strength is given.

For the substance Cul1-HA (from UniProt Q24311 1-774), the binding result in test [1] is recorded as “binds”. On to “Dco-V5 (Discs overgrown, casein kinase I) (from UniProt O76324 1-440) (enzyme)”, for which, in test [2], the binding entry is “binds”. For the substance SkpA-HA (from UniProt O77430 1-162), the binding result in test [1] is recorded as “binds”.
